Source: patent US20250151740A1, “COMPOSITION FOR PREVENTING FUNGAL SPOILAGE IN POST-HARVEST FRUITS, VEGETABLES AND FLOWERS, METHOD AND USE THEREOF” (BIOBAB R&D, S.L., priority 2022, published 2025)

Tested on: strawberries
Test: Organoleptic analysis: volatile organic compounds of exposed strawberries (GC)
Conditions: strawberries exposed for 5 days versus control

Compound: CC1=C(C=O)C(C)(C)CCC1 [β-CC, beta-cyclocitral]
- changes in the VOCs released through the fruits: No changes were observed
